# Experimental data reported in PubChem BioAssay AID1508600 (Functional Genomics Laboratory (NCATS/FGL), 2020).
# In all, about 53,000 sequences went through this assay and about 3,700 (7%) were called active.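 Rule for the calls: active = gene knockdowns whose robust z-score for IL-1 alpha signal is at least 2 or at most -2, so actives lie on both sides; inactive = the rest.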 The list shows a part of the results.
# Assay: Components of the Cytosolic LPS Sensing Pathway: Gene Identification via Genome-wide siRNA Screen;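 note: robust z of the log signal after scaling to non-targeting control siRNA wells of the plate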
# Conditions: RAW264.7 macrophages, IL-1a HTRF, actives lie on both sides, screened at 100 nM (by protocol), cells primed 5 h with Pam3CSK4 first
# In short: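 Knockdown: 100 nM siRNA, 48h, RAW264.7. Stimulation: Pam3CSK4 5 h, then LipidA via TransIT-TKO 24 h. Output: supernatant IL-1a HTRF, negative-control-normalized, log robust z-score; viability by CellTiter-Glo.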
row,Sequence,z-score
1,GCGACUGUGGUGGUUACAUTT against Bcas2,inactive: 0.444
2,CCCUGGUACAUUUCACGUCTT against Defb50,inactive: 0.0211
3,GGCCAUACCUCCCUUUGAATT against Polr1b,inactive: -1.02
4,GGAUAUGUCGGAAAAAGCCTT against Cfh,inactive: 0.271
5,GGCCUUCCUGCUCAAGUUUTT against Ano1,inactive: 1.04
6,GCGUUAUAGCCUCAGUGUGTT against Olfr605,inactive: 1.04
7,GGCCUAUGCACAACUGAAGTT against Slc6a19,inactive: 0.828
8,GGGCAUUCUACUUCAGAGATT against Orc2,inactive: -1.47
9,GGCCAGCGAGAGAGAGAAATT against Msgn1,inactive: 0.371
10,GGUGGUUGAACAUAAGACUTT against Zfp688,inactive: 1.27
11,GGGUAGUAACAAUUAGAUCTT against Tppp,inactive: 0.0656
12,GCACUUCGAAUGUACUGUCTT against Gnrh1,inactive: -0.656
13,GGCCUGUAGUCAAUGGAAATT against Magi2,inactive: -0.382
14,CGGAAUUUUGCCUUCAUGATT against Iars2,inactive: -1.64
15,GGAUUAAACAAGAACAAGATT against Cnksr2,inactive: 0.496
16,GGUUCUCUAUUUUCAGCACTT against Inmt,inactive: -0.848
17,GGGCAAACAUUAUAAAUUGTT against Prl8a9,inactive: 1.46
18,GGUACUUGUACUAAUCGCUTT against Lpcat2,inactive: 0.683
19,GGAAUGUAUGGUGAGACUUTT against Ap4e1,inactive: 1.25
20,GGACUGACCCUGUAAAGAUTT against Zfp296,inactive: -0.574
21,GGCUUCAAGCUAUUCAUGATT against Dgkb,inactive: 0.126
22,GGGUUUAGCUCACUGAGUATT against Tm4sf5,inactive: -1.53
23,CCGGCUUCUGGUACUAUACTT against Plekhn1,inactive: 0.351
24,GGGAUCUCAUUGCACAUUUTT against Nudt18,inactive: -0.859
25,GGCAAACAGACUGAGUUUATT against Tsc2,inactive: 1.3
26,CUAUCAAGGGCAGUCAACUTT against Olfr1208,active: -2.38
27,GGCGAGAAACCUUUCAGAUTT against Zic4,active: 4.72
28,GGGCGAAUUUAACACAGUGTT against Txnrd1,inactive: -1.8
29,GGGAAAAUUAGAAGUCAGGTT against Dscam,inactive: -0.562
30,CCAAUGUGUUUGCCAAUAGTT against Psph,inactive: 1.62

# Seven neighbouring records out of the list so far:
row,Sequence,z-score
1,GCGACUGUGGUGGUUACAUTT against Bcas2,inactive: 0.444
2,CCCUGGUACAUUUCACGUCTT against Defb50,inactive: 0.0211
3,GGCCAUACCUCCCUUUGAATT against Polr1b,inactive: -1.02
4,GGAUAUGUCGGAAAAAGCCTT against Cfh,inactive: 0.271
5,GGCCUUCCUGCUCAAGUUUTT against Ano1,inactive: 1.04
6,GCGUUAUAGCCUCAGUGUGTT against Olfr605,inactive: 1.04
7,GGCCUAUGCACAACUGAAGTT against Slc6a19,inactive: 0.828
